Reference: PubChem BioAssay AID493014 (National Center for Advancing Translational Sciences (NCATS), 2011)
Some of the results follow. These are further read-outs of the screen, such as a control signal, another cell line or another target. No call is given for them. Most of these compounds were active or inconclusive in the main read-out, so they are no random draw. The note in brackets gives the kind of curve behind each potency; many fits are weak.

Assay: qHTS Assay to Find Inhibitors of Chronic Active B-Cell Receptor Signaling
Conditions: ABC-DLBCL IkBa-CBG/CBR reporter, luminescence ratio (green luciferase fused to IkBa over red control in TMD8 lymphoma cells), 4 h
In short: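 TMD8 human ABC-DLBCL cells with doxycycline-inducible IκBα–green luciferase fusion and unfused red luciferase, in 0.5% FBS medium; compounds up to 46 uM, 4 h at 37C. Green/red luminescence ratio, filter-overlap corrected, fitted to concentration-response curves.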

[1] = measured here: CBR red luminescence, cell number
[2] = measured here: IkBa-CBG green luminescence

Structure (SMILES)	AC50 [1]	AC50 [2]
Cc1cc(C)c2c(N)c(C(=O)Nc3ccc(F)cc3)sc2n1	11.2 µM [falling, partial curve]	–
CCN(CC)S(=O)(=O)c1cccc(C(=O)Nc2ccccc2C(=O)Nc2ccc(Cl)cc2)c1	31.6 µM [rising, single point]	–
O=C(C1CC(=O)N(c2ccc(Br)cc2)C1)N1CCCC1 (stereo unspecified)	3.55 µM [rising, partial curve, poor fit]	–
COc1ccc(C(=O)NN(C)c2nc(C(F)(F)F)nc3ccccc23)cc1	0.251 µM [rising, full curve, poor fit]	0.316 µM [falling, full curve, poor fit]
CCCCC(=O)Nc1nnc(S(=O)(=O)N(CC)c2ccc(OC)cc2)s1	35.5 µM [falling, single point]	–
O=C(O)c1ccc(NC(=S)NC(=O)c2ccc(-c3ccc(Br)cc3)o2)cc1	0.316 µM [falling, full curve, poor fit]	–
COC(=O)[C@@]1(C)[C@H]2C(=O)N(Cc3ccccc3)C(=O)[C@H]2[C@H]2CN=C(SCC3CC3)N21	29.1 µM [rising, partial curve, poor fit]	–
O=C(c1ccc(F)cc1)N(Cc1cccs1)C1CCS(=O)(=O)C1 (stereo unspecified)	20 µM [rising, single point]	–
O=C1CC(NC23CC4CC(CC(C4)C2)C3)C(=O)N1c1ccc2c(c1)OCO2 (stereo unspecified)	20.6 µM [rising, partial curve, poor fit]	–
COc1cc(C2C(C#N)=C(N)Oc3cc4c(cc32)OCO4)cc(OC)c1OC (stereo unspecified)	0.398 µM [rising, full curve, poor fit]	0.631 µM [falling, full curve]
CCOc1ccc(C(c2c(NC(=O)c3ccccc3)sc(C)c2C)N2CCN(C)CC2)cc1 (stereo unspecified)	29.1 µM [falling, single point]	–
Cn1c(CN2CCCCC2)nc2cc(NC(=O)c3cccs3)ccc21	20.6 µM [falling, partial curve, poor fit]	–
Cc1cccc(NC(=O)CSc2nccn2Cc2ccco2)c1	1.26 µM [falling, partial curve, poor fit]	–
COc1ccc(CN(C)C(=O)CNC(=O)c2ccc(C)cc2)cc1	35.5 µM [falling, partial curve, poor fit]	–
CCOc1ccc(C(=O)NCC2(c3ccccc3)CCOCC2)cc1	31.6 µM [rising, single point]	–
O=C(c1ccc2c(c1)N(Cc1cccc(Cl)c1)C(=O)c1ccccc1S2(=O)=O)N1CCCC1	12.6 µM [rising, single point]	–
CCOc1ccc2nc(NC(=O)CSc3nc4ccccc4c(=O)n3Cc3ccco3)sc2c1	0.411 µM [falling, partial curve, poor fit]	–
COC(=O)c1c(C)[nH]c(O)c1C=Nc1ccc(Oc2ccccc2)cc1	17.8 µM [rising, single point]	–
COc1ccc(-c2cc(=O)oc3c(C)c(OC(C)C(=O)Nc4ccc(CN5CCOCC5)cc4)ccc23)cc1 (stereo unspecified)	20 µM [falling, partial curve, poor fit]	–

In the list so far, these have bromine.
Structure (SMILES)	AC50 [1]	AC50 [2]
O=C(C1CC(=O)N(c2ccc(Br)cc2)C1)N1CCCC1 (stereo unspecified)	3.55 µM [rising, partial curve, poor fit]	–
O=C(O)c1ccc(NC(=S)NC(=O)c2ccc(-c3ccc(Br)cc3)o2)cc1	0.316 µM [falling, full curve, poor fit]	–

The list continues.

Structure (SMILES)	AC50 [1]	AC50 [2]
CCCOC(=O)COC(=O)c1ccccc1NC(=O)c1ccccc1	14.6 µM [falling, single point]	–
COc1cccc(/C=C(\CC(=O)O)c2nc3ccccc3s2)c1	20 µM [falling, partial curve]	–
O=C(Nc1nnc(C2CC2)s1)c1cccc(S(=O)(=O)N2CC(c3ccccc3)CC2=O)c1 (stereo unspecified)	8.91 µM [falling, partial curve]	–
COc1ccccc1-c1noc(-c2ccncc2)n1	0.00517 µM [rising, full curve, poor fit]	–
Cc1nc2ccc3nc(NC(=O)C4COc5ccccc5O4)sc3c2s1 (stereo unspecified)	8.2 µM [falling, partial curve, poor fit]	–
COc1cc(/C=N/NC(=O)c2cc(-c3cccn3C)n[nH]2)cc(OC)c1OC	7.94 µM [falling, partial curve, poor fit]	–
C=CCNc1oc(-c2cccc(Cl)c2)nc1C#N	–	29.1 µM [falling, single point]
CCCCCCC(=O)N/N=C/c1ccc(Br)cc1	18.4 µM [rising, single point]	–
COc1ccccc1NS(=O)(=O)c1cccc(C(=O)N/N=C/c2cn(-c3ccccc3)nc2-c2ccccc2)c1	6.51 µM [rising, partial curve, poor fit]	23.1 µM [falling, partial curve, poor fit]
COc1ccc(C(=O)Nc2cccc(NC(C)=O)c2)cc1OC	18.4 µM [falling, partial curve, poor fit]	–
CSc1ccccc1C(=O)Nc1nc2ccccc2[nH]1	10 µM [falling, partial curve, poor fit]	–
Cc1csc(NC(=O)CSc2nnc(-c3ccncc3)o2)n1	10.3 µM [falling, partial curve, poor fit]	–
CN(c1ccc(C(=O)N2CCCCC2)cc1)S(C)(=O)=O	32.6 µM [rising, single point]	–
O=C(c1ccc([N+](=O)[O-])cc1)n1nc(-c2ccccc2)nc1NCc1ccccc1	14.1 µM [falling, partial curve]	–
CCCn1nnc(NC(=S)NC(=O)c2ccc(-c3ccc(Br)cc3)o2)n1	–	3.55 µM [falling, full curve]
O=C(NCCc1ccccn1)c1ccc(OC(F)F)cc1	12.6 µM [falling, partial curve]	–
C(=N\Nc1nc(Nc2ccccc2)nc(N2CCOCC2)n1)/c1c[nH]c2ccccc12	20 µM [falling, partial curve, poor fit]	–
CC(C)C[C@@H](C(=O)NCc1ccco1)N1C(=O)N2CCc3c([nH]c4ccccc34)[C@@]2(C)C1=O	35.5 µM [falling, single point]	–
CC(Sc1nc2ccccc2c(=O)n1CC1CCCO1)C(=O)Nc1ccc(S(N)(=O)=O)cc1 (stereo unspecified)	23.1 µM [falling, partial curve]	–
